Source: PubChem BioAssay AID504784 (Drosophila RNAi Screening Center, 2011)
Screen: 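Fly genes whose silencing alters how much lipid cells keep in droplets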 (primary screen). Cell system: Drosophila Kc167 embryonic cells. Knock-down reagent: long dsRNA against Drosophila genes, about 250 ng dsRNA per well. Time to read-out: 4 days. Challenge: cells fed 400 µM oleic acid bound to BSA. Measurement: 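Microscope images give a droplet-to-nucleus area ratio, taken as log and converted to a screen-wide B-score; higher values mean greater lipid storage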. Direction: droplet/nuclear area B-score: higher = more stored lipid (overstorage).
In all, the deposit lists about 17,000 reagents; shown is a random part of those with a known target gene and a result. 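Each column is one replicate's B-score; the combined score over replicates was not deposited, so single values may mislead.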 Names joined by + are all predicted targets of the reagent. Further read-outs or replicates are left out here.

| target | dsRNA | droplet/nuclear area B-score, replicate 1 |
| --- | --- | --- |
| Coq6 | DRSC03040 | -1.43 |
| Spn55B | DRSC07694 | -0.00723 |
| Spn55B | DRSC21862 | -1.27 |
| drn | DRSC15147 | -0.572 |
| Mekk1 | DRSC16302 | -1.04 |
| Mekk1 | DRSC16303 | -0.88 |
| Rab7 | DRSC16810 | 1.51 |
| CG1640 | DRSC19750 | -0.0636 |
| CG15676 | DRSC04267 | -0.494 |
| CG4520 | DRSC15590 | -0.256 |
| CG33771 | DRSC11718 | -0.699 |
| Axud1 | DRSC00270 | -0.997 |
| Ephrin | DRSC17165 | -2.14 |
| Mcad | DRSC09871 | -0.35 |
| Obp83a | DRSC12362 | -0.0506 |
| CG6765 | DRSC10706 | 0.26 |
| CR11386 + CR33222 | DRSC17781 | 0.0766 |
| Gr58a | DRSC03910 | -1.57 |
| Vha68-1 | DRSC03470 | -2.22 |
| Shab | DRSC08013 | 1.44 |
| Shab | DRSC08643 | 0.314 |
| Shab | DRSC08699 | 0.115 |
| CG5535 | DRSC10514 | 0.926 |
| dre4 | DRSC08714 | -0.639 |
| tacc | DRSC12019 | -1.63 |
| tacc | DRSC12388 | -1.79 |
| CG7849 | DRSC04895 | 0.0627 |
| Klp98A | DRSC16724 | -0.167 |
| Klp98A | DRSC21834 | -1.57 |
| GLS | DRSC07261 | -1.01 |
| CG32147 | DRSC09346 | 0.13 |
| Hsp83 | DRSC08664 | 0.0962 |
| HmgZ | DRSC03888 | 1.04 |
| HmgZ | DRSC04620 | 4.94 |
| Spx | DRSC18720 | -3.66 |
| CG7246 | DRSC18422 | -1.05 |
| Sps1 | DRSC07549 | -0.17 |
| CG30447 | DRSC05820 | 0.00246 |
| CG5355 | DRSC02844 | -2.71 |
| CG10348 | DRSC02043 | -0.695 |
| CG10348 | DRSC21908 | 0.139 |
| CG10348 | DRSC23233 | -1.27 |
| CG33460 | DRSC05570 | -0.579 |
| BomT3 | DRSC15871 | 0.615 |
| Polr3D | DRSC10485 | 1.34 |
| CG5612 | DRSC15844 | -0.204 |
| CR14798 | DRSC17956 | -0.551 |
| fun (retired record) | DRSC12300 | 0.203 |
| Gbs-70E | DRSC11055 | 1.05 |
| fz2 | DRSC10087 | 0.258 |
| fz2 | DRSC11349 | -0.954 |
| CG13064 | DRSC09947 | -0.236 |
| Pdha | DRSC18413 | -1.85 |
| CG4741 | DRSC04485 | -0.823 |
| CG15073 | DRSC06506 | -0.154 |
| Gr58c | DRSC04136 | 0.5 |
| Su(var)3-3 | DRSC10250 | -0.348 |
| Ent1 | DRSC00330 | -0.716 |
| CG13488 | DRSC04133 | 1.94 |
| wal | DRSC07717 | -0.0476 |
| RhoGEF3 | DRSC08351 | 1.2 |
| RhoGEF3 | DRSC08352 | -0.868 |
| ACOX1 | DRSC05941 | 0.821 |
| CG9993 | DRSC04599 | -1.67 |
| Sdc | DRSC04654 | -1.05 |
| PpD3 | DRSC16796 | -0.0703 |
| CG17344 | DRSC02607 | 0.526 |
| CG9338 | DRSC03213 | -2.15 |
| ebi | DRSC00816 | -2.47 |
| GCC185 | DRSC15493 | -1.43 |
| CG7988 | DRSC16358 | -0.447 |
| Jon99Ci | DRSC16860 | 0.587 |
| CG32091 | DRSC10141 | 1.17 |
| CG32091 | DRSC10820 | -0.177 |
| Mkk4 | DRSC16739 | -1.57 |
| CG12126 | DRSC06103 | 0.111 |
| Men | DRSC12924 | 0.644 |
| Men | DRSC16738 | 1.18 |
| Men | DRSC22694 | 0.00489 |
| CG31562 (retired record) | DRSC12273 | 0.0164 |
| CG31562 (retired record) | DRSC12274 | -1.56 |
| Vm26Ab | DRSC03473 | -0.214 |
| Eno | DRSC00750 | -0.541 |

Targets above whose target name starts with G or g:
| target | dsRNA | droplet/nuclear area B-score, replicate 1 |
| --- | --- | --- |
| Gr58a | DRSC03910 | -1.57 |
| GLS | DRSC07261 | -1.01 |
| Gbs-70E | DRSC11055 | 1.05 |
| Gr58c | DRSC04136 | 0.5 |
| GCC185 | DRSC15493 | -1.43 |
